Assay results: the supplement of paper PMC3334620
Over roughly 33,000 sequences, “E-score (-0.5 to 0.5)” has its median near -8e-05; the highest 2% begin near 0.23. The list shows a part of the results.

The sequences below were run against T1, Nrg2 (UniProt P38082) (assay: PBM E-score (8-mer binding enrichment) (E-score (-0.5 to 0.5)); higher = stronger / more preferred TF binding). Conditions: protein concentration: 100 nM; construct: GST-full length.
T1 sequence: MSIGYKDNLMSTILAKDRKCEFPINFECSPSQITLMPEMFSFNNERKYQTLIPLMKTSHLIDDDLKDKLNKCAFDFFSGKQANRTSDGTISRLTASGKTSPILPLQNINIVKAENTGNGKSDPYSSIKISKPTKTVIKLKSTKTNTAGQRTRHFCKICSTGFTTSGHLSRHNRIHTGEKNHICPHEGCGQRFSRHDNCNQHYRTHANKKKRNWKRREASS
Summary of the method: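 E-scores (a modified Wilcoxon-Mann-Whitney statistic) were assigned by the Universal PBM Analysis Suite to every ungapped eight-base word pooled with its reverse complement. The input came from universal all-10-mer Agilent arrays made double-stranded by primer extension and probed with GST-tagged yeast transcription factors at about 100-200 nM. Fluorescent anti-GST detected bound protein, and masliner normalised the scans.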

Point of comparison: ATACACTG, “PBM E-score” value 0.117. Against it:
- GCCAATAA — higher, 0.137
- AAAGCTGT — the same, 0.117
- CTTCTTAC — lower, -0.116
- AATGAACG — lower, 0.0572
- AATACGAG — higher, 0.132
- AACCATCC — lower, -0.0832
- AACCTACC — lower, -0.0709
- AACAAAAT — higher, 0.153
- CAGGCTCC — lower, -0.143
- AGGAGGAC — lower, -0.274
- CCGCTCTA — lower, -0.0252
- CAATGGGG — lower, -0.128
- CTGGGGGA — lower, -0.419
- CGAACACC — lower, -0.0608
- CATAGTTC — lower, 0.045
- GCCTTCCC — lower, -0.352
- TCGTACGA — lower, -0.101
- GCATGGCC — lower, -0.0308
- AACCACGG — lower, -0.0501
- ATATAATC — lower, 0.0816
- CCCAGCGG — lower, -0.211
- ATTGGGCC — higher, 0.163
- CGGCATTA — lower, 0.0976
- TATATGCA — lower, -0.0847
- CGCCAGCA — lower, -0.218
- GTAGTAGA — lower, -0.0835
- CAACAACA — higher, 0.127
- GCTGGCGA — lower, -0.132
- CAGTGGAC — lower, -0.00742
- CGGAGCAG — lower, -0.109
- ATGCCTCA — lower, -0.00156
- AGTACGAA — higher, 0.144
- TAGTCGAA — lower, 0.0805
- CTACATAC — lower, 0.0503
- CGGCGAGA — lower, 0.0721
- ATGCCACC — lower, -0.0621
- ATTATAGC — lower, 0.0701
- AATGCCAG — lower, 0.041
- CCTGCATC — lower, -0.0151
- ATGCGTAG — lower, -0.112
- ACGATACT — lower, -0.0629
- GTCGTTCA — lower, -0.158
- CTACGGCA — lower, -0.0192
- GATTTAAC — lower, 0.0302
- CCGGCCAA — lower, -0.0829
- CTGTGTTA — lower, 0.0396
- GGTTTCTA — lower, 0.0672
- ATTATCCA — higher, 0.189
- TCTCATCA — higher, 0.131
- CTGTAGGC — lower, -0.109
- GGCTCTGA — lower, -0.106
- GTGGGGCA — lower, -0.0184
- ATCACTTA — lower, -0.137
- ATTAATCG — higher, 0.222
- GGTGTAAA — lower, -0.0134
- CTACACTA — lower, -0.0831
- CTTACTTA — lower, 0.0313
- CACGTTAC — lower, -0.206
- AACCAACC — lower, -0.105
- ACAGGTCG — lower, -0.00986
- ATAGTTAC — lower, -0.0575
- AATTGTGG — lower, 0.0167
- CGCGAGCG — lower, -0.00561
- ATGAGAAT — higher, 0.152
- ATATACCC — lower, 0.0613
- AGGTCTGG — lower, -0.204
- AAGACACT — higher, 0.127
- AGTTCTTA — lower, 0.0811
- CGCACGAG — lower, -0.0371
- CTATACAG — lower, -0.0337
- CACTGCTC — lower, -0.019
- CGGTGCGC — lower, -0.0228
- GGTTATAC — lower, -0.0785
- CACGTCTA — lower, -0.0411
- AATCTTTC — lower, 0.0868
- AATCCGTA — lower, -0.0501
- GCACCCTA — lower, 0.105
- AATCACTG — higher, 0.203
- GTATGAAC — lower, 0.0727
- GCTGGGAC — lower, -0.147
- ACACTCGG — lower, 0.0287
- GACATACC — lower, 0.0381
- AGAAAGCT — lower, 0.0283
- CTGGATGA — lower, 0.0113
- GGGACTGA — lower, -0.15
- CCGCTAGA — lower, -0.194
- AGAAGGTG — lower, -0.00485
- GGGGTAAA — lower, 0.02
- AGTAGGAG — lower, -0.128
- AGATCGCA — lower, 0.0389
- AACAGTCC — lower, -0.149
- GGCGGGCA — lower, -0.0772
- ACGGACCT — higher, 0.17
- AGGAAGCG — lower, -0.0453
- CGCCGACC — lower, -0.0861
- CCGCACCC — lower, 0.0906
- ACGCCCAG — lower, -0.12
- CGAAGAGA — lower, -0.0105
- AGGCATCA — lower, -0.226
- TCAGATAA — higher, 0.142
- GAACTGGC — lower, -0.122
- ACTACGCG — lower, -0.0292
- AGAAGAGC — lower, -0.187
- CCGAATCG — lower, -0.1
- AGACCACA — lower, -0.152
- AAACGTCG — lower, -0.045
- AATTATGT — lower, 0.0874
- AGAGACGA — lower, -0.0478
